Source: the supplement of paper PMC11264405

How the values were obtained:
Assay in all cases: minimum inhibitory concentration
[1] = compound: Cc1ncc([N+](=O)[O-])n1CCO [metronidazole]
[2] = compound: CCc1c(Cl)c(O)c(Cl)c(O)c1C(=O)O[C@H]1[C@H](O)[C@H](OC)[C@H](OC/C2=C\C=C\C[C@H](O)/C(C)=C/[C@H](CC)[C@@H](O[C@@H]3OC(C)(C)[C@@H](OC(=O)C(C)C)[C@H](O)[C@@H]3O)/C(C)=C/C(C)=C/C[C@@H]([C@@H](C)O)OC2=O)O[C@@H]1C [fidaxomicin]
[3] = compound: CN(C)c1cc(NC(=O)CNC(C)(C)C)c(O)c2c1C[C@H]1C[C@H]3[C@H](N(C)C)C(O)=C(C(N)=O)C(=O)[C@@]3(O)C(O)=C1C2=O [tigecycline]
[4] = compound: C[C@@H](O)[C@H]1C(=O)N2C(C(=O)O)=C(SCCNC=N)C[C@H]12 [imipenem]
[5] = compound: CN[C@H](CC(C)C)C(=O)N[C@H]1C(=O)N[C@@H](CC(N)=O)C(=O)N[C@H]2C(=O)N[C@H]3C(=O)N[C@H](C(=O)N[C@H](C(=O)O)c4cc(O)cc(O)c4-c4cc3ccc4O)[C@H](O)c3ccc(c(Cl)c3)Oc3cc2cc(c3O[C@@H]2O[C@H](CO)[C@@H](O)[C@H](O)[C@H]2O[C@H]2C[C@](C)(N)[C@H](O)[C@H](C)O2)Oc2ccc(cc2Cl)[C@H]1O [vancomycin]
[6] = compound: CC(=O)NC[C@H]1CN(c2ccc(N3CCOCC3)c(F)c2)C(=O)O1 [linezolid]
[7] = compound: CCC[C@@H]1C[C@@H](C(=O)N[C@@H]([C@H]2O[C@H](SC)[C@H](O)[C@@H](O)[C@H]2O)[C@H](C)Cl)N(C)C1 [clindamycin]
[8] = compound: C[C@@H](O)[C@H]1C(=O)N2C(C(=O)O)=C(S[C@@H]3CN[C@H](C(=O)N(C)C)C3)[C@H](C)[C@H]12 [meropenem]
[9] = compound: CO[C@H]1/C=C/O[C@@]2(C)Oc3c(C)c(O)c4c(O)c(c(/C=N/N5CCN(C)CC5)c(O)c4c3C2=O)NC(=O)/C(C)=C\C=C\[C@H](C)[C@H](O)[C@@H](C)[C@@H](O)[C@@H](C)[C@H](OC(C)=O)[C@@H]1C [rifampicin]

Test System	minimum inhibitory concentration [1]	minimum inhibitory concentration [2]	minimum inhibitory concentration [3]	minimum inhibitory concentration [4]	minimum inhibitory concentration [5]	minimum inhibitory concentration [6]	minimum inhibitory concentration [7]	minimum inhibitory concentration [8]	minimum inhibitory concentration [9]
Clostridioides difficile PCR ribotype 903 isolate #275 (European region: South, country: Spain, isolate source: Human, ribotype: 903)	0.25 mg/L	0.06 mg/L	0.06 mg/L	4 mg/L	0.5 mg/L	2 mg/L	8 mg/L	4 mg/L	0.002 mg/L
Clostridioides difficile PCR ribotype 911 isolate #276 (European region: East, country: Slovakia, isolate source: Human, ribotype: 911)	< 0.125 mg/L	0.015 mg/L	< 0.03 mg/L	8 mg/L	0.5 mg/L	2 mg/L	2 mg/L	2 mg/L	< 0.001 mg/L
Clostridioides difficile PCR ribotype 920 isolate #277 (European region: West, country: Netherlands, isolate source: Human, ribotype: 920)	< 0.125 mg/L	0.06 mg/L	0.06 mg/L	2 mg/L	1 mg/L	2 mg/L	0.5 mg/L	4 mg/L	< 0.001 mg/L
Clostridioides difficile PCR ribotype 927 isolate #279 (European region: South, country: Greece, isolate source: Human, ribotype: 927)	< 0.125 mg/L	0.125 mg/L	< 0.03 mg/L	4 mg/L	1 mg/L	2 mg/L	4 mg/L	2 mg/L	< 0.001 mg/L
Clostridioides difficile PCR ribotype 928 isolate #280 (European region: East, country: Poland, isolate source: Human, ribotype: 928)	0.25 mg/L	0.06 mg/L	< 0.03 mg/L	4 mg/L	0.5 mg/L	2 mg/L	8 mg/L	2 mg/L	< 0.001 mg/L
